# Primary screen of a compound library

Data taken from ChEMBL document CHEMBL3988442, “University of Dundee, Small-Polar-MMV Screening Library” (2021).

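Viability assay of Plasmodium falciparum sporozoites; the read-out is not stated. The concentration is filed as 10 mM, unlikely as a test dose, so the dose is not known. Higher reads as lower viability (inferred: compounds with an IC50 in retests scored well above the rest). Strong results were mostly tested again. Size under these conditions: about 34,000 compounds, about 280 of them at 50% or above in at least one test.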

Results are given as percent effect. The controls that fix the scale are not given in the record; negative values are as filed. This is an unselected part of the compounds tested. Two or more numbers in one place are separate tests of the same structure; such repeats can differ widely.

structure,percent effect
Cc1ccccc1C(=O)N1CC[C@H](O)[C@@H](N2CCOCC2)CC1,2.533
CC(Cn1ccnc1)NC(=O)C1(c2cccc(Cl)c2)CC1 (configuration not stated),6.434
COc1cc(CC(O)CO)c(OC)c2c1OCO2 (configuration not stated),-1.316
CCn1ccnc1CNCC1CCN(CC(O)c2ccccc2)CC1 (configuration not stated),-8.535
O=C(O)C(F)(F)F.[H][C@@]12CCN(C3CCOCC3)C[C@]1([H])O[C@@H](C(=O)N1CCOCC1)C2,4.654
COc1ccc(OC)c(CNC(=O)N2CCC(n3cncn3)CC2)c1,16.69
CCOc1cc(-c2cc(=O)n3c(n2)CCCCC3)ccc1O,-19.69
CCc1ocnc1C(=O)N1CCOC(c2nc(C)n[nH]2)C1 (configuration not stated),-19.44 and 3.701 and -28.59
CCc1nc(C)c(C(=O)NCCNc2ncnc3sccc23)s1,-15.95 and -9.104
Clc1ccc(N2CCC(OCC3CCCCO3)CC2)nc1 (configuration not stated),-17.56
CCN1C(=O)CCCC12CCCN(C(=O)c1cnccn1)C2 (configuration not stated),0.9887
Cn1cc(CN2CCCC23CCN(C(=O)c2ccsc2)CC3)cn1.O=C(O)C(F)(F)F,-12.17
O=C(NC1CCN(c2cccc(OC(F)(F)F)c2)C1=O)C1CCC1 (configuration not stated),-12.25
Clc1ccc(-c2cnc(CNC3CCc4ncnn4C3)o2)cc1 (configuration not stated),-1.306
CC(C)CS(=O)(=O)CC(=O)N(C)Cc1ccc(OC(F)F)cc1,-4.588
CCN(Cc1ccc2c(c1)OCO2)Cc1nc(C)no1,-97.85 and 16.8 and 7.529
Cc1nn(C)c(N2CCOCC2)c1CNCc1ccnn1C,7.31 and 1.803 and 4.872
CCc1n[nH]c(C2CN(C(=O)CCc3cscn3)CCO2)n1 (configuration not stated),0
CN(C)c1ncccc1CNS(=O)(=O)c1ccccc1Cl,-4.807
FC(F)CN1CCOC(Cn2cccn2)C1 (configuration not stated),-4.254
O=C(NCCNC(=O)N1CCC(c2ccccc2)C1)C1CC1 (configuration not stated),-10.47
CCOCCCNc1nc(O)cc(C2CC(=O)N(C)C2)n1 (configuration not stated),7.464
[H][C@]12CC[C@]([H])(CN(c3ncccn3)C1)N(C(=O)c1cnc(SC)nc1)C2,5.877
O=C(NCc1cc[nH]n1)N1CCN(c2ccccc2Cl)CC1,2.526
COCCc1ncc(CNC2(c3ccc(Cl)cc3Cl)CC2)cn1,-2.528
[H][C@]12CCN(C(=O)c3ccncc3F)[C@@]1([H])CC[C@H](COC)O2,6.93
COc1cccc(CNC(=O)CN2CCCC(Cn3cncn3)C2)c1 (configuration not stated),5.324
N#CC1CCN(C(=O)NCCc2ccc(Cl)s2)CC1,-5.249
COc1c(C)cnc(CNC(=O)c2cnc3onc(C)c3c2)c1C,-6.946
Cc1nn(C)c(C)c1NC(=O)Nc1cccnc1N1CCCC1,6.389
CCc1nnc(CN2CCCC(c3cc(C(N)=O)[nH]n3)C2)o1 (configuration not stated),8.441
CCS(=O)(=O)N1CCC2(CCN(CC(=O)N(C)C)C2=O)CC1,2.89
Cc1cc(C)nc(C2CCN(C(=O)CCn3ncc4ccccc43)C2)n1 (configuration not stated),7.074
O=C(O)C(F)(F)F.O=C(O)C(F)(F)F.[H][C@@]12OCCN(Cc3ccccn3)[C@@]1([H])CC[C@H]2OC,-0.6188
Cl.c1csc(-c2noc(C3CCCNC3)n2)c1 (configuration not stated),-8.883
CCNC(=O)N1CCN(C(=O)c2cc(Cl)cc3cccnc23)CC1,-2.738
Clc1ccccc1-c1nnc(CNCCn2cccn2)o1,2.793
CC(O)CN(CC(=O)NC1CCCCC1)c1ccccc1 (configuration not stated),-6.689
Cc1noc(C)c1-c1cccc(C2CCNCC2)n1,12.06
Cn1cc(CN2CCCC(c3nc(O)cc(-c4cccs4)n3)C2)cn1 (configuration not stated),11.49
Cn1cc(C2COC3(CCN(C(=O)c4ccc(F)cc4)CC3)C2)cn1 (configuration not stated),1.6
COc1cc2ncn(CC(=O)NCCCN(C)C)c(=O)c2cc1OC,12.06
CC(NCC1=Cc2cc(Cl)ccc2OC1)c1nnc2n1CCCC2 (configuration not stated),-0.2255
c1coc(-c2nc3c(c(NCc4n[nH]c5c4CCC5)n2)CCNCC3)c1,-5.658
CN1CCN(CC2CC2)C(=O)c2cnc(N3CCCC3)nc21,3.922
CC(C)n1nnc(CC(=O)NCC2(c3ccccc3F)CCOCC2)n1,2.531
NCc1cn(CC2CCCN(C(=O)NCc3ccc(Cl)cc3)C2)nn1 (configuration not stated),-10.94 and -16.25
c1nc(C2CCCCO2)ncc1CN1CCOCC1 (configuration not stated),6.556
Cc1nn(C)c(Cl)c1CNCc1cccnc1N1CCOCC1.Cl,5.975
Cc1cc(N2CCCCC2)c(C#N)c(C)n1,-0.1304
Cc1nc2c(c(NC3CC3)n1)CCN(C(=O)C(C)(C)O)CC2,1.143
Cc1ccc(CN2CCC3(CC(=O)N(c4ccc5c(c4)OCO5)C3)C2)o1 (configuration not stated),6.083
[H][C@]12C[C@@H](C(=O)NCc3cccs3)CO[C@@]1([H])CCN(CC)C2,18.4
CC1CCCN(C(=O)C2CCN(c3snc4ccccc34)CC2)C1 (configuration not stated),6.864
CC(C)c1cc(C(=O)N2CCN(Cc3ccsc3)CC2)n[nH]1,-25.37
CN(C)C(=O)C1(CCCc2ccccn2)CCN1Cc1nccn1C (configuration not stated),1.705
CCc1ncc2c(n1)CN(c1cc(N3CCN(C)CC3)nc(N)n1)C2,7.872
Fc1cccc(CCN(c2ccc3nnnn3n2)C2CC2)c1,-12.35
CCN(CC)CCNCC1CCOC(C)(C)C1 (configuration not stated),1.522
Cc1occc1C(=O)NCc1cccnc1N(C)C,16.45
Cc1occc1C(=O)N1CCCC(c2nncn2C)C1 (configuration not stated),-6.905
Cc1nc2n(n1)CC(NCc1c(Cl)ccc3cccnc13)CC2 (configuration not stated),-3.374
Cc1ccsc1C(=O)N1CCCN(Cc2cscn2)CC1,-667.2
CCC(O)Cn1nc(-c2ccc(C(=O)O)cc2)cc1-c1cccc(F)c1 (configuration not stated),11.59
Cc1cnn(CC2CCCCN2C(=O)c2ccc(N(C)C)nc2)c1 (configuration not stated),0.7823
CCCC(O)CN1CC(C)(C)CN(C(=O)c2ccc(Cl)cc2)CC1=O (configuration not stated),7.368
[H][C@]12CN(C(=O)c3ncoc3C)CC[C@@]1(O)CCN(C(=O)N1CCCC1)C2,-9.948
COc1ccccc1CC1CCCN(CCC(N)=O)C1 (configuration not stated),1.561
CCn1ncc2c1C(COC)N(C(=O)Cc1cccs1)CC2 (configuration not stated),2.35
COC(=O)CC1c2cccnc2C(=O)N1Cc1ccccc1 (configuration not stated),-4.689
Cc1cc(C(=O)N2CCCC2c2nnc3n2CCCCC3)no1 (configuration not stated),4.031
CC(C)c1nc2c(n1C)CCN(Cc1nc(-c3ccoc3)no1)C2,83.83 and 76.55 and 70.15
O=C(CN1CCOC(Cn2cccn2)C1)Nc1ccncc1 (configuration not stated),-5.797
Cc1cnc(CN2CCOC(Cn3nc(C)cc3C)C2)cn1 (configuration not stated),6.53
CC(CNC(=O)c1cc(C2CC2)on1)N1CCc2ccccc21 (configuration not stated),-2.836
Cc1cc(N2CCC(C(=O)N(C)C)CC2)nc(-c2ccncc2)n1,2.161
COCc1cc(O)nc(C2CCCN(Cc3cccc(Cl)c3Cl)C2)n1 (configuration not stated),-5.021
Cc1cnn(C2CCCN(C(=O)c3cccc(Cn4ccnc4)c3)C2)c1 (configuration not stated),2.625
COC[C@]1(O)CCN(C2CCN(c3ccc(Cl)cc3)CC2)CC1(C)C,0.8657 and 3.285
CCc1nnc(CN(CC)C(=O)C2CCC(=O)N(C3CCCC3)C2)o1 (configuration not stated),-19.23
COc1ccc(C(C)N(C)Cc2nc3c(cnn3C)c(=O)[nH]2)cc1 (configuration not stated),-4.021
CCN(Cc1nc2c(cnn2C)c(=O)[nH]1)c1cc(C)cc(C)c1,8.681
CC(=O)NC1CCCN(C(=O)CNc2cc(Cl)cc(Cl)c2)C1 (configuration not stated),-3.441
[H][C@@]12CCN(c3ccc(C)nn3)C[C@]1(C(=O)N(C)C)CCO2,11.37